Residue numbers refer to the chain shown, from its start. These are yes or no findings as the source states them, for the method shown. A result given as binding can be weak or reduced; the word gives no strength.
B1: 2A3 VHH (VHH)
VHH: QVQLVESGGGVVQPGRSLRLSCAASGGSFSSYPMGWFRQAPGKERESVAAISSDMRFTYYADSVKGRFTISRDNSKNTLYLQMNSLRAEDTAVYYCAARDSGVGYYSRAQWYDYWGQGTLVTVSS
B2: 1A8 VHH (VHH)
VHH: B1 VHH with G27P, D54R, M55G, V103S
B3: 1D11 VHH (VHH)
VHH: B1 VHH with G27P, Y32S, D54M, M55G, V103S
B4: 5E8 VHH (VHH)
VHH: B1 VHH with G27P, I51Q, M55G, V103S
B5: 2A5 VHH (VHH)
VHH: B1 VHH with G27P, D54V, M55G, V103S, A109W
B6: 5G10 VHH (VHH)
VHH: B1 VHH with G27P, S28R, M55G, V103S, Y114G
B7: 2A6 VHH (VHH)
VHH: B1 VHH with G27P, S31L, M55R, V103S
B8: 1G1-1C12 VHH (VHH)
VHH: B1 VHH with G27P, M55L, V103S, A109K
B9: 5B5 VHH (VHH)
VHH: B1 VHH with G27P, M55T, V103S, Y114R
B10: 6F12 VHH (VHH)
VHH: B1 VHH with G27P, S30T, M55G, T58K, R99E, V103S
B11: 1C7 VHH (VHH)
VHH: B1 VHH with G27P, D54R, M55G, D100G, V103S
B12: 6E9 VHH (VHH)
VHH: B1 VHH with G27P, F29R, M55G, R56K, V103S, Q110N
B13: 1A10 VHH (VHH)
VHH: B1 VHH with G27N, M55G, T58S, A98C, V103S
B14: 6B11 VHH (VHH)
VHH: B1 VHH with G27P, S30P, D54R, M55G, V103S, A109L
B15: 6D8 VHH (VHH)
VHH: B1 VHH with G27P, Y32K, I51R, M55G, V103S, Y105R
B16: 6D12 VHH (VHH)
VHH: B1 VHH with G27P, S31T, M55G, R56V, V103S, A109E
B17: 2C5 VHH (VHH)
VHH: B1 VHH with G27P, S31T, D54Q, M55G, V103S
B18: 7F6 VHH (VHH)
VHH: B1 VHH with G27P, S28M, M55P, V103S
B19: 2D5 VHH (VHH)
VHH: B1 VHH with G27P, Y32S, S53W, M55G, V103S, D113V
B20: 7B11 VHH (VHH)
VHH: B1 VHH with G27P, S30L, S31I, M55G, T58W, V103S, A109V

Molecular target: recombinant cynomolgus TIGIT (cynomolgus monkey)
Test: ELISA, VHH supernatant

Row | Binder | binding
1 | B1 | binds
2 | B2 | binds
3 | B3 | binds
4 | B4 | binds
5 | B5 | binds
6 | B6 | binds
7 | B7 | binds
8 | B8 | binds
9 | B9 | binds
10 | B10 | binds
11 | B11 | binds
12 | B12 | binds
13 | B13 | binds
14 | B14 | binds
15 | B15 | binds
16 | B16 | binds
17 | B17 | binds
18 | B18 | binds
19 | B19 | binds
20 | B20 | binds

Reference: patent US20230060388A1
